Experimental findings from paper PMC12483566 are described below.

These are yes or no findings as the source states them, for the method shown. In cells and extracts the contact can be indirect. Some entries that bind do so weakly or less than the wild type. Tags and fused reporters may be left off the sequences shown.

The target in assay [1] is mitochondrial thioredoxin reductase-2 (TXNRD2), V5-tagged, wild type (human) (UniProt Q9NNW7). Briefly: co-IP; HT-1080 cells overexpressing TXNRD2 (V5-tagged) and TXN2 (Myc-tagged); TXNRD2 immunoprecipitated with anti-V5 beads, TXN2 detected with anti-Myc; cells untreated, with CoA (100 μM, 18 hours), or with erastin plus CoA; lysed in NEM buffer.
Assay [2] has the same target. Briefly: condition: only cells treated with erastin (2.5 μM, 18 hours); co-IP; HT-1080 cells overexpressing TXNRD2 and TXN2 treated with erastin (2.5 μM, 18 hours) without CoA; lysed in NEM buffer.

B1: mitochondrial thioredoxin 2 (TXN2), Myc-tagged (protein, UniProt Q99757 60-166)
chain: TTFNIQDGPDFQDRVVNSETPVVVDFHAQWCGPCKILGPRLEKMVAKQHGKVVMAKVDIDDHTDLAIEYEVSAVPTVLAMKNGDVVDKFVGIKDEDQLEAFLKKLIG
Take B1: the binding entry in assay [1] is reported as “binds”; in assay [2], “no binding”.
